These are yes or no findings as the source states them, for the method shown. Binding seen in cells or lysates may run through a third protein. Some binding calls cover weakened binding; strength is not graded here.
Biological target: T1, hexokinase 1 (HK1) (UniProt P19367)
T1 sequence: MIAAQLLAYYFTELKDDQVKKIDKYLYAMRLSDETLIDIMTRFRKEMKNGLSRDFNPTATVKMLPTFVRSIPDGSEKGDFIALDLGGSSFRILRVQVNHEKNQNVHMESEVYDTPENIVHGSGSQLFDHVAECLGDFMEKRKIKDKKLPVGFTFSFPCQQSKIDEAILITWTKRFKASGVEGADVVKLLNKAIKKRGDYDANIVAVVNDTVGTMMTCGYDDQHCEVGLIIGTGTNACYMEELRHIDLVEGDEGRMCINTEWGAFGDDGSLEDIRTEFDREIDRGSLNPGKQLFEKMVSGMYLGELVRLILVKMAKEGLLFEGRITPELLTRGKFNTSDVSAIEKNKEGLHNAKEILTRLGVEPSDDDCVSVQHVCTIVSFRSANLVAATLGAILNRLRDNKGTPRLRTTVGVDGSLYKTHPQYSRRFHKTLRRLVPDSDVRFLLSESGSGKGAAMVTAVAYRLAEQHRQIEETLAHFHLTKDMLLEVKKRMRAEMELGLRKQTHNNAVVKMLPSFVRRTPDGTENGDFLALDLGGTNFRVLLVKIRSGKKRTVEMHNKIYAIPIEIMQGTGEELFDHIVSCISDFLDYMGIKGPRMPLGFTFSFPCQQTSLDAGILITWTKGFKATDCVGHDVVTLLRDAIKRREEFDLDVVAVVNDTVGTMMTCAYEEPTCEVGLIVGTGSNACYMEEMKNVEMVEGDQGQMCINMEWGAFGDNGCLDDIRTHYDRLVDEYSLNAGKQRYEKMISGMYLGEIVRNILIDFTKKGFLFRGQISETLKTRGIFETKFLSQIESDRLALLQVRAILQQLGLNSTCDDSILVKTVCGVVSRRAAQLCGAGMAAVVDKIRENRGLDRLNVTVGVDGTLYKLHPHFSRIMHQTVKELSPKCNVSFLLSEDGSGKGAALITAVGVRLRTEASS
Test: co-IP; cell lysates (50 mM Tris-HCl pH 7.6, 150 mM NaCl, 100 mM NaF, 0.5% Nonidet P-40) with antibody and protein G-Sepharose, 4 °C, 3 h, western blot; cells with or without TGF-β (2 ng/ml) or PDNPA (10 μM)

binding: binds
B1: depalmitoylase ABHD17B (enzyme, UniProt Q5VST6 1-288)
chain: MNNLSFSELCCLFCCPPCPGKIASKLAFLPPDPTYTLMCDESGSRWTLHLSERADWQYSSREKDAIECFMTRTSKGNRIACMFVRCSPNAKYTLLFSHGNAVDLGQMSSFYIGLGSRINCNIFSYDYSGYGASSGKPTEKNLYADIEAAWLALRTRYGIRPENVIIYGQSIGTVPSVDLAARYESAAVILHSPLTSGMRVAFPDTKKTYCFDAFPNIDKISKITSPVLIIHGTEDEVIDFSHGLALFERCQRPVEPLWVEGAGHNDVELYGQYLERLKQFVSQELVNL

Reference: paper PMC9584821
